# In PMC3781321:
# Sequences of proteins named here, by UniProt entry; tags and fusion partners are left off.
# UniProt Q7TMB8: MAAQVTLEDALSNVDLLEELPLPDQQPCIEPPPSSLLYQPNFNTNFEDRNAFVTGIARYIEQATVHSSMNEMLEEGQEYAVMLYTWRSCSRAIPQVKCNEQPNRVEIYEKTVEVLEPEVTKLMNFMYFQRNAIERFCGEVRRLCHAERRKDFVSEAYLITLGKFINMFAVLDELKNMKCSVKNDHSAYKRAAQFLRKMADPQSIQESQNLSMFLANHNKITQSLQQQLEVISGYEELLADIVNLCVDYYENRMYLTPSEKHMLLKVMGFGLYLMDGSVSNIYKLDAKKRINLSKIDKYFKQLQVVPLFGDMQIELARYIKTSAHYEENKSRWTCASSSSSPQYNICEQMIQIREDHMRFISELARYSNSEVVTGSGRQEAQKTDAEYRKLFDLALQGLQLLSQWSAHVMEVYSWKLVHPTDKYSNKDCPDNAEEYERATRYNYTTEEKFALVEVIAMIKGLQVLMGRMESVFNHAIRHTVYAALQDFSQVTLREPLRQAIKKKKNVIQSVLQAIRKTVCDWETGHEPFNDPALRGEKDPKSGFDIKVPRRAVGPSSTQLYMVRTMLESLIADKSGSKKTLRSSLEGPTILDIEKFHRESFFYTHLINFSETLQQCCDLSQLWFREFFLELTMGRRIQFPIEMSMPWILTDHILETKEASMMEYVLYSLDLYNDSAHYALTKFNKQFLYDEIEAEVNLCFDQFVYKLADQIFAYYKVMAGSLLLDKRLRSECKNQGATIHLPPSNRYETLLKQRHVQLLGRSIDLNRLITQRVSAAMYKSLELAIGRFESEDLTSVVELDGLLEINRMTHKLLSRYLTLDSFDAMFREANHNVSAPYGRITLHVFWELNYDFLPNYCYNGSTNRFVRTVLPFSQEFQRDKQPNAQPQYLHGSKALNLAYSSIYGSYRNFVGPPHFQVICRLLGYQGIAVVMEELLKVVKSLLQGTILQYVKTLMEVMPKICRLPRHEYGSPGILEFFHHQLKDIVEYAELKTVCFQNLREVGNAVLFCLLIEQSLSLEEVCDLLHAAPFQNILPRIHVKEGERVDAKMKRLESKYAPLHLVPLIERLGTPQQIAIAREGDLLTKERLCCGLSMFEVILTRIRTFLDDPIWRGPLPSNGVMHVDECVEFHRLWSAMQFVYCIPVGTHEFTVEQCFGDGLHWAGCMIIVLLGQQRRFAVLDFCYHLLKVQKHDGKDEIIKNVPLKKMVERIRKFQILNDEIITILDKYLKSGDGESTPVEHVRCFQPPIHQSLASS
# UniProt P29341: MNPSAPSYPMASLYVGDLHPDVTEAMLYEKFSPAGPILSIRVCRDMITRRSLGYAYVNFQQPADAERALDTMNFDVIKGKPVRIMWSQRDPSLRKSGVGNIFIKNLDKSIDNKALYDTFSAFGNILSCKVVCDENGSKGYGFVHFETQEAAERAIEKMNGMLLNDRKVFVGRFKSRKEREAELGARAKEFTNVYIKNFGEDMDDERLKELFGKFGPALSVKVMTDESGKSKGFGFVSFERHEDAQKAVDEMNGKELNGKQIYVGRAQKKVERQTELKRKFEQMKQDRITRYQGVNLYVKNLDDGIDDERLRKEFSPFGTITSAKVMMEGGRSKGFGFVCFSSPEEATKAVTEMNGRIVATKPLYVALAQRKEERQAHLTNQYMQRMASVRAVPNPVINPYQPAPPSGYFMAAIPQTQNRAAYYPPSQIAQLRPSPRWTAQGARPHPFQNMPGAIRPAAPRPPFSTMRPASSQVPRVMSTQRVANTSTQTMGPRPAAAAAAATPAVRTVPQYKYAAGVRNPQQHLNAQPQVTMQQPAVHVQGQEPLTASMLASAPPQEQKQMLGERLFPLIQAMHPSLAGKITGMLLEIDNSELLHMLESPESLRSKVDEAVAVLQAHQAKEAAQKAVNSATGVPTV
# No constants are given. Whether binding was seen depends on the method and setting. Binding seen in cells or lysates may run through a third protein. A yes stands for co-enrichment or nearness to the bait. Other partners may have been found.
# Target: cytoplasmic FMRP-interacting protein 1 (CYFIP1), mouse, endogenous (mouse (endogenous in cortex)) (UniProt Q7TMB8)
# Experiment: affinity purification with mass spectrometry; IP with anti-CYFIP1 antibody from mouse whole cortical lysates, tandem MS; rabbit IgGs as negative control; n = 3
row,binding,Molecule
1,binds,"PABP1, mouse, endogenous (from UniProt P29341 1-636)"
2,binds,"Caprin1, mouse, endogenous (protein, UniProt Q60865 1-707) MPSATSHSGSGSKSSGPPPPSGSSGSEAAAGAAAPASQHPATGTGAVQTEAMKQILGVIDKKLRNLEKKKGKLDDYQERMNKGERLNQDQLDAVSKYQEVTNNLEFAKELQRSFMALSQDIQKTIKKTARREQLMREEAEQKRLKTVLELQYVLDKLGDDDVRTDLKQGLSGVPILSEEELSLLDEFYKLVDPERDMSLRLNEQYEHASIHLWDLLEGKEKPVCGTTYKALKEIVERVFQSNYFDSTHNHQNGLCEEEEAASAPTVEDQVAEAEPEPAEEYTEQSEVESTEYVNRQFMAETQFSSGEKEQVDEWTVETVEVVNSLQQQPQAASPSVPEPHSLTPVAQSDPLVRRQRVQDLMAQMQGPYNFIQDSMLDFENQTLDPAIVSAQPMNPTQNMDMPQLVCPQVHSESRLAQSNQVPVQPEATQVPLVSSTSEGYTASQPLYQPSHATEQRPQKEPMDQIQATISLNTDQTTASSSLPAASQPQVFQAGTSKPLHSSGINVNAAPFQSMQTVFNMNAPVPPANEPETLKQQSQYQATYNQSFSSQPHQVEQTELQQDQLQTVVGTYHGSQDQPHQVPGNHQQPPQQNTGFPRSSQPYYNSRGVSRGGSRGARGLMNGYRGPANGFRGGYDGYRPSFSNTPNSGYSQSQFTAPRDYSGYQRDGYQQNFKRGSGQSGPRGAPRGRGGPPRPNRGMPQMNTQQVN"
